# Where “and” joins values, the source holds several entries; their conditions need not be identical. Identical values can stand only once. In all, about 300,000 compounds went through this assay and about 5,400 (1.8%) were called active. Inconclusive results, whose numbers are uncertain, are shown with a selection of clear calls. Calls come from the whole dose curve; tested in HEK293 cells. Potencies of inconclusive entries are doubtful fits and often do not repeat.
# Assay: qHTS for inhibitors of binding or entry into cells for Marburg Virus
# Conditions: Marburg virus pseudotyped entry inhibition, cell reporter; activity change, negative = inhibition: at 37.8 µM (top of the series) unless noted
# % is set by controls: 0 for no effect and ±100 for the full control effect; potency is the fitted concentration of half-maximal effect.
SMILES,Potency,"activity change, negative = inhibition"
O=C(NCc1ccccc1)N[C@@H](Cc1c[nH]c2ccccc12)C(=O)O,"inconclusive: 6.51 µM [inhibitor, single point]",–
Cc1ccc(C(=O)Oc2csc(=S)n2C(=O)c2ccc(C)cc2)cc1,–,inactive: 5.33%
CC(C)n1c(O)c(C2c3cc(Cl)ccc3Oc3[nH]c(=O)n(C(C)C)c(=O)c32)c(=O)[nH]c1=O (configuration not stated),"inconclusive: 35.5 µM [inhibitor, single point]",–
Cc1c2c(nc3c(C(=O)NC4CCCC4)cnn13)CCCC2,"inconclusive: 0.411 µM [inhibitor, full curve]",–
CC(OC(=O)Cn1[nH]c(=O)c2ccccc2c1=O)C(=O)Nc1ccccc1[N+](=O)[O-] (configuration not stated),"inconclusive: 31.6 µM [activator, single point]",–
CC1(C)S[C@@H]2[C@H](NC(=O)[C@H](C(=O)O)c3ccsc3)C(=O)N2[C@H]1C(=O)O,"inconclusive: 23.1 µM [activator, single point]",–
COc1ccc(C(=O)Nc2ccc(S(=O)(=O)Nc3cnc4ccccc4n3)cc2)cc1,"inconclusive: 2.51 µM [inhibitor, single point]",–
CC(=O)c1c(COC(=O)c2ccc(C)cc2)nc2ccccc2[n+]1[O-],"inconclusive: 0.501 µM [inhibitor, full curve, poor fit]",–
Cc1ccccc1OCCCn1cc(C(=O)C(=O)N2CCOCC2)c2ccccc21,"inconclusive: 35.5 µM [inhibitor, single point]",–
Cc1ccc(O)c(C(CC(=O)N2CCCC2)c2ccccc2)c1 (configuration not stated),–,inactive: 0.257%
COc1ccc2c(c1)C(c1ccc([N+](=O)[O-])cc1)=NNC(c1ccco1)=N2,"inconclusive: 11.6 µM [inhibitor, partial curve, poor fit]",–
CCN(CC)S(=O)(=O)c1cc(NC(=O)C(C)N2CCN(c3ccccn3)CC2)ccc1C (configuration not stated),"inconclusive: 35.5 µM [inhibitor, single point]",–
CCOC(=O)c1cccc(NC(=O)c2ccc3c(c2)OCO3)c1,–,inactive: -1.08%
O=C(c1ccc(OCC2CCCO2)cc1)N1CCN(c2ccccc2)CC1 (configuration not stated),–,inactive: 8.07%
CN1CCC(NC(=O)NC2CCCCC2)CC1,–,inactive: 0.514% [at 46.1 µM]
O=C(O)CCSc1nc2ccccc2n1-c1ccccc1,–,inactive: -10.7% [at 46.1 µM]
COc1ccc(-c2csc(NC3=NCCCCC3)n2)cc1,"inconclusive: 6.51 µM [activator, single point]",–
Cc1ccc(OCC(=O)NNC(=O)C2CCN(c3ncnc4sc(C)c(C)c34)CC2)cc1,–,inactive: -2.11% [at 46.1 µM]
Cc1cc(C)c(-c2n[nH]c3c2C(c2ccccc2F)N(Cc2ccco2)C3=O)c(O)c1 (configuration not stated),"inconclusive: 17.8 µM [inhibitor, partial curve, poor fit]",–
CCOC(=O)C1(Cc2ccccc2Cl)CCN(C(=O)c2cnccn2)CC1,–,inactive: 9.73% [at 46.1 µM]
Cc1ccn2c(C(=O)N/N=C\c3ccc4c(c3)OCO4)c(C)nc2c1,"inconclusive: 11.2 µM [inhibitor, partial curve, poor fit]",–
COCc1ccc(CN2CCCC(CO)(Cc3cccc(Cl)c3)C2)o1 (configuration not stated),"inconclusive: 35.5 µM [inhibitor, single point]",–
O=C1CCCC2=C1C(c1ccc(O)c(Br)c1)C1=C(CCCC1=O)N2c1ccccc1,"inconclusive: 35.5 µM [inhibitor, partial curve, poor fit]",–

SMILES,Potency,"activity change, negative = inhibition"
CC(=O)c1c(C)[nH]c(C(=O)Nc2cccc(C(F)(F)F)c2)c1C,"inconclusive: 10 µM [inhibitor, partial curve, poor fit]",–
Cc1nnc(SCC(=O)Nc2sccc2C#N)s1,"inconclusive: 6.31 µM [activator, single point]",–
COc1ccccc1CC1C(=O)C2CCN1CC2 (configuration not stated),"inconclusive: 0.316 µM [activator, partial curve, poor fit]",–
COc1ccc(C(=O)Nc2cccc(-c3cc4ccccc4oc3=O)c2)cc1[N+](=O)[O-],"inconclusive: 1.41 µM [inhibitor, partial curve, poor fit]",–
O=C(O)CCC(=O)Nc1cccc(-c2nc3ccccc3o2)c1,"inconclusive: 0.316 µM [inhibitor, single point]",–
CCC(C)(C)NC(=O)C(c1ccc(F)cc1)N(Cc1ccco1)C(=O)CCC(=O)Nc1ccccn1 (configuration not stated),"inconclusive: 15.8 µM [inhibitor, single point]",–
OC(CN1CCOCC1)Cn1c2c(c3ccccc31)CCCC2 (configuration not stated),"inconclusive: 35.5 µM [activator, single point]",–
COc1ccc2[nH]c(=O)c(CN(CC3CCCO3)S(=O)(=O)c3ccccc3F)cc2c1 (configuration not stated),"inconclusive: 7.08 µM [inhibitor, partial curve, poor fit]",–
CCOC(=O)C1(CCc2ccccc2)CCN(C(=O)C2CCOCC2)CC1,–,inactive: 3.74% [at 46.1 µM]
Cc1ccc(NC(=O)c2sc3nc(-c4cccs4)ccc3c2N)cc1F,–,inactive: 7.97% [at 46.1 µM]
CCOC(=O)Cc1nn(Cc2nc(-c3ccc(C#N)cc3)cs2)c(=O)c2ccccc12,"inconclusive: 3.55 µM [inhibitor, partial curve, poor fit]",–
O=[N+]([O-])c1ccc2nc(-c3ccc(Cl)cc3)n(OCc3ccccc3)c2c1,"inconclusive: 0.1 µM [activator, full curve, poor fit]",–
COc1ccc2nccc(/C=C/c3ccnc4ccc(OC)cc34)c2c1,"inconclusive: 35.5 µM [inhibitor, single point]",–
Cc1c(Cl)cccc1NC(=O)COC(=O)CCc1nc2ccccc2n1-c1ccccc1,"inconclusive: 15.8 µM [activator, single point]",–
COc1ccc(-c2cc(C(F)(F)F)nc(SCCC(=O)Nc3ccc(OC)c(OC)c3)n2)cc1,"inconclusive: 3.16 µM [inhibitor, partial curve, poor fit]",–
O=S(=O)(c1ccc(F)cc1)c1nc(-c2ccco2)oc1Nc1ccc(F)cc1,–,inactive: -27.8%
CC1=CC2C(C(O)CC3(C)C2CC(C)C32OCOC23COCO3)C2(C)C/C(=C\O)C(=O)C=C12 (configuration not stated),active: 7.94 µM,–
CC(C)CN(C)c1nc(N)c(C(=O)N=C(N)N)nc1Cl,active: 7.08 µM,–
O=C(NCc1ccco1)c1cc(-c2cccc(Cl)c2)on1,"inconclusive: 3.26 µM [activator, single point]",–
CC(=O)Nc1ccc(S(=O)(=O)NCCC(=O)NCCc2ccc(F)cc2)cc1,–,inactive: 6.63%
CSc1ccccc1OCc1cc(C(=O)N2CCN(C)C(c3ccccc3)C2)no1 (configuration not stated),"inconclusive: 35.5 µM [inhibitor, single point]",–
COc1ccc(C)cc1NC(=O)Nc1nnc(N2CCCCC2)s1,–,inactive: -12.2% [at 46.1 µM]
CC(=O)NCCC(=O)Nc1ccc(C)c(F)c1,"inconclusive: 20.6 µM [activator, partial curve, poor fit]",–

SMILES,Potency,"activity change, negative = inhibition"
C=C(C)COc1ccc(-c2[nH]ncc2-c2ccccc2)c(O)c1,"inconclusive: 0.891 µM [inhibitor, partial curve, poor fit]",–
Cc1ccc(OC(=O)COc2ccccc2C)cc1,–,inactive: 1.87% [at 46.1 µM]
CCn1c(P(C)(=O)O)nc2ccccc21,–,inactive: 20.9%
O=C(CN1CCc2ccccc2C1)c1cccs1,"inconclusive: 5.62 µM [activator, single point]",–
Oc1c(CN2CCCC(C(F)(F)F)C2)cc(Cl)c2ccccc12 (configuration not stated),"inconclusive: 35.5 µM [inhibitor, single point]",–
O=c1[nH]c(-c2cccnc2)nc2ccccc12,–,inactive: -0.456%
O=C(NC(=S)Nc1cccc(NC(=S)NC(=O)c2ccccc2)c1)c1ccccc1,"inconclusive: 2.82 µM [activator, full curve, poor fit]",–
CCc1nn(CCCC(=O)NCc2ccc(OC(C)C)cc2)c(=O)c2cc3occc3n12,"inactive and inconclusive: 6.31 µM [inhibitor, partial curve, poor fit]",–
CCCCCCCC(=O)Nc1ccc(S(=O)(=O)Nc2nccs2)cc1,"inconclusive: 10 µM [activator, partial curve, poor fit]",–
O=C(NC(C(=O)N/N=C/c1ccncc1)c1n[nH]c(=O)c2ccccc12)c1ccccc1 (configuration not stated),–,inactive: 13.2% [at 46.1 µM]
Cc1cc(C(c2ccc(C)o2)c2ccc(C)o2)c(O)c([N+](=O)[O-])c1,–,inactive: -17.6%
Cc1ccc(C(=O)NNc2nc3ccccc3nc2C(F)(F)F)cc1,"inconclusive: 1.26 µM [inhibitor, single point]",–
Cc1c(CNC2CCCCC2)c(C(=O)O)c(C)n1Cc1ccc(Cl)cc1,"inconclusive: 0.562 µM [inhibitor, full curve, poor fit]",–
Cc1cc(C)c(NC(=O)Cn2c(=O)n(CCC(=O)N3CCc4ccccc4C3)c(=O)c3ccccc32)c(C)c1,"inconclusive: 5.01 µM [inhibitor, single point]",–
O=Cc1cn(-c2ccccc2)nc1-c1ccc2c(c1)OCCO2,"inconclusive: 22.4 µM [inhibitor, single point]",–
O=C(c1cc2cc(Br)ccc2[nH]1)N1CCc2ccccc21,"inconclusive: 14.1 µM [activator, partial curve, poor fit]",–
Cc1csc(NC(=O)c2cccn2C)n1,–,inactive: -30.7%
CC(C)(C)c1ccc(C2CC2C(=O)N/N=C\c2ccc[nH]2)cc1 (configuration not stated),"inconclusive: 0.562 µM [inhibitor, full curve, poor fit]",–
Cc1cc(NC(=O)CSc2ncn(-c3ccccc3)n2)no1,"inconclusive: 20 µM [inhibitor, partial curve, poor fit]",–
S=C(NCCc1ccccc1)Nc1ccccn1,"inconclusive: 5.62 µM [activator, full curve]",–
Cn1nnnc1SCCCNCc1ccccc1OCc1ccc(Cl)cc1,"inconclusive: 25.1 µM [inhibitor, partial curve, poor fit]",–
